Paper PMC11741287

By UniProt entry, the sequences of proteins in these tests, tags left out.
UniProt Q02156: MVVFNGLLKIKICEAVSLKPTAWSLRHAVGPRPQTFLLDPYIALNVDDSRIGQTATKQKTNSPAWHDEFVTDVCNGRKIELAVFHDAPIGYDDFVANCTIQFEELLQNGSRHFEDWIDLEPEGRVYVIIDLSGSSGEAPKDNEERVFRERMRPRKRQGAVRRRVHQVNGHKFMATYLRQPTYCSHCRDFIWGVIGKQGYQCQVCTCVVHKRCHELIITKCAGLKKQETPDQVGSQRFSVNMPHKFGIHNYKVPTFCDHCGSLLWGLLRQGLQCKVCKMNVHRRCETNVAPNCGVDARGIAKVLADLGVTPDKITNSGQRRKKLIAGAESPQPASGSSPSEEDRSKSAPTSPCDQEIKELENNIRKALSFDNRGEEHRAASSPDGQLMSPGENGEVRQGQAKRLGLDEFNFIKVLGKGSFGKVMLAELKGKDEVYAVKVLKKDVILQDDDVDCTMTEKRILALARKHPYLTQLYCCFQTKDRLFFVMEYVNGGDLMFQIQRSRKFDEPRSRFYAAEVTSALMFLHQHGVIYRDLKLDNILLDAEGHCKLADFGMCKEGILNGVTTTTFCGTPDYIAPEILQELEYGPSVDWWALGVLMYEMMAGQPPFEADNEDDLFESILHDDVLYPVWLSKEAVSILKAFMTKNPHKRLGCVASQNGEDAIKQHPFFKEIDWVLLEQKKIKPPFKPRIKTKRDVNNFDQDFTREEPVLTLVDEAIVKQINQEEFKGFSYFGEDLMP

Molecular target: Flag-PKCɛ (human) (UniProt Q02156)
Assay: affinity purification with mass spectrometry; agarose FLAG beads on lysates of transfected HEK293T cells (Opto-PKCɛ cells after five minutes of blue light); on-bead digestion, LC-MS/MS, label-free quantitation; untransfected HEK293T as negative control, proteins at least 10 times more abundant considered

- binding: binds
B1: MARCKS (protein, UniProt P29966 1-332)
chain: MGAQFSKTAAKGEAAAERPGEAAVASSPSKANGQENGHVKVNGDASPAAAESGAKEELQANGSAPAADKEEPAAAGSGAASPSAAEKGEPAAAAAPEAGASPVEKEAPAEGEAAEPGSPTAAEGEAASAASSTSSPKAEDGATPSPSNETPKKKKKRFSFKKSFKLSGFSFKKNKKEAGEGGEAEAPAAEGGKDEAAGGAAAAAAEAGAASGEQAAAPGEEAAAGEEGAAGGDPQEAKPQEAAVAPEKPPASDETKAAEEPSKVEEKKAEEAGASAAACEAPSAAGPGAPPEQEAAPAEEPAAAAASSACAAPSQEAQPECSPEAPPAEAAE

These are yes or no findings as the source states them, for the method shown. Binding seen in cells or lysates may run through a third protein. A yes stands for co-enrichment or nearness to the bait. Other partners may have been found.
